# Assay results: PubChem BioAssay AID2685 (National Center for Advancing Translational Sciences (NCATS), 2010)
# In all, about 320,000 compounds went through this assay and about 2,100 (0.66%) were called active. The shares of active, inactive and inconclusive entries below differ from those in the screen. Calls follow the shape of the dose curve; as a rule, active = well fitted inhibition curve with a large enough effect in the signal ratio, with a control signal flat (not every such curve was filed as active); inconclusive = small, poorly fitted or top-dose-only effect, or effect the other way, or a change in a side signal; inactive = flat fitted curve, though single readings scatter; the % refers to the signal ratio. Potencies beside an inconclusive call are fits to weak or partial responses and may not hold up.
# Assay: qHTS Assay for Lipid Storage Modulators in Drosophila S3 Cells
# Details: BODIPY lipid droplet fluorescence, 18-24 h, cells fed with added oleic acid; lipid storage change, negative = inhibition: at 46.1 µM (top of the series) unless noted
# Summary of the method: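 Drosophila S3 cells got compounds at several concentrations plus oleic acid (400 uM solution). Laser-scanning cytometry with 488 nm excitation read lipid droplets at 500-530 nm and cells at 575-640 nm. Percent activity was relative to 20 uM Triacsin C.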
# % is scaled to controls: 0 for no effect and ±100 for the full control effect; potency is read from the fitted curve at half-maximal effect.
SMILES,"lipid storage change, negative = inhibition",Potency
CN1CCN(C(=O)c2ccc(-c3ccccc3)cc2)CC1,inconclusive: 53.9%,–
Nc1nc(COC(=O)CCC(=O)c2ccccc2)nc(Nc2ccccc2)n1,inconclusive: -54.2%,–
COc1ccc(N2C(=O)NC(NC(=O)c3cccnc3)(C(F)(F)F)C2=O)cc1 (configuration not stated),inconclusive: -24.6% [at 9.22 µM],–
Cc1ccc(-c2cc(-c3ccccc3)no2)cc1,inconclusive: 9.59%,–
COc1ccc(-c2csc(N3CCN(S(=O)(=O)c4ccc5c(c4)NC(=O)CO5)CC3)n2)cc1,–,"inconclusive: 20.6 µM [activator, partial curve]"
CC(=O)c1ccc(S(=O)(=O)NCCC(=O)OCC(=O)NCCc2ccccc2)cc1,inconclusive: 4.25%,–
CC1CC(c2ccccc2)=Nc2ccccc2N1 (configuration not stated),–,active: 0.82 µM
CCOC(=O)Cc1csc(SCC(=O)NC2CCCC(C)C2C)n1 (configuration not stated),–,"inconclusive: 29.1 µM [falling, single point]"
Cc1cc(=O)[nH]c(SCC(=O)N(CCC#N)c2ccccc2)c1C#N,inconclusive: 67.2%,–
CCCC(C(=O)NC1CCCC1)N(Cc1ccc(F)cc1)C(=O)c1snc(C(N)=O)c1N (configuration not stated),inconclusive: 1.9%,–
Cc1cc(C(=O)COC(=O)c2cc(O)c3ccccc3c2O)c(C)n1CC1CCCO1 (configuration not stated),inconclusive: 12.3%,–
COc1ccc(CNC(=O)CCNC(=O)c2ccc(C(C)(C)C)cc2)cc1OC,inconclusive,–
CN(C)c1ccc(C(=O)c2ccc(N(C)C)c3ccccc23)cc1,–,"inconclusive: 20.6 µM [falling, partial curve]"
O=C(c1cc(S(=O)(=O)N2CCOCC2)ccc1Cl)N1CCOCC1,–,"inconclusive: 29.1 µM [activator, single point]"
COc1cccc(CC(=O)OC(C)C(=O)Nc2ccc(Cl)cn2)c1 (configuration not stated),inconclusive,–
CN1CCN(NC(=O)CN2C(=O)/C(=C/c3c(Cl)cccc3Cl)SC2=S)CC1,–,"inconclusive: 6.51 µM [activator, single point]"
COc1ccc(CCNC(=O)CCC(=O)n2ncc3cc(C)ccc32)cc1OC,–,"inconclusive: 10.3 µM [falling, partial curve]"
CCNC(=O)CSc1nc2ccccc2c(=O)n1OC,inconclusive: -18.9%,–
C=CCOc1c(Br)cc(CNn2c(C)n[nH]c2=S)cc1OCC,inconclusive: -100%,–
CCN(C(=O)c1cc2c(=O)n3cccc(C)c3nc2n1CCCOC)C1CCCCC1,–,active: 23.1 µM
CC(C)OC(=O)CSc1nnc(CNc2nc(-c3ccccc3)cs2)n1C,inconclusive: 6.24%,–
CCN(CC)S(=O)(=O)N1CCC(C(=O)NC2CCCc3ccccc32)CC1 (configuration not stated),–,"inconclusive: 20.6 µM [falling, single point]"
Cc1cc(Oc2ccccc2)nc2ccc(O)cc12,–,"inconclusive: 29.1 µM [activator, single point]"
Cc1ccc2nc(SCC(=O)N/N=C/c3ccc(C(=O)O)cc3)cc(C)c2c1,inconclusive: 18.8%,–
Cc1c(C(=O)NC(=S)N(Cc2ccccc2)c2ccccn2)cccc1[N+](=O)[O-],inconclusive: -57.3%,–
COCc1nnc(NS(=O)(=O)c2ccc(NC(C)=O)cc2)s1,inconclusive: 17.8%,–

# 3 records picked at random from those above, as already listed:
SMILES,"lipid storage change, negative = inhibition",Potency
Cc1c(C(=O)NC(=S)N(Cc2ccccc2)c2ccccn2)cccc1[N+](=O)[O-],inconclusive: -57.3%,–
C=CCOc1c(Br)cc(CNn2c(C)n[nH]c2=S)cc1OCC,inconclusive: -100%,–
COCc1nnc(NS(=O)(=O)c2ccc(NC(C)=O)cc2)s1,inconclusive: 17.8%,–

# Further compounds follow:

SMILES,"lipid storage change, negative = inhibition",Potency
CN(CC1CCOCC1)C(=O)CC1C(=O)NCCN1CC(c1ccccc1)c1ccccc1 (configuration not stated),inconclusive: 3.99%,–
O=C(CCS(=O)(=O)c1ccc(Cl)cc1)Nc1nnc(-c2ccco2)o1,inconclusive: 8.2%,–
COC(=O)c1ccc(Cn2nnc3c(=O)[nH]c(C4CCCN(S(=O)(=O)c5ccc(C)cc5)C4)nc32)cc1 (configuration not stated),inconclusive: 4.91%,–
CSc1ccc(/C=C/C(=O)N2CCCN(C)CC2)cc1,inconclusive: -7.47%,–
O=C(O)c1cccc(S(=O)(=O)Nc2ccc(O)c(Sc3nc4ccccc4s3)c2)c1,inconclusive: -6.87%,–
CN(C)/C=N/N(C)c1ncccc1[N+](=O)[O-],inconclusive: -29%,–
Cc1nc2ccccc2n1CC(=O)N/N=C/c1cccnc1,inconclusive: 6.73%,–
Cc1nc2ccccc2n1CC(O)c1ccccc1 (configuration not stated),inconclusive: -0.817%,–
CCC(=O)Nc1ccc(NCc2ccc(-c3ccccc3)cc2)cc1,inconclusive: 28.9%,–
NNC(=O)c1nc(-c2ccccc2)n2c1CCCCC2,–,"inconclusive: 2.59 µM [activator, single point]"
O=C(CC12CC3CC(CC(C3)C1)C2)NCc1ccc(F)cc1,–,"inconclusive: 0.411 µM [falling, partial curve]"
Cc1ccc(C(=O)O)cc1S(=O)(=O)N1CCCC1,inconclusive: -8.29%,–
Cc1cc(C)cc(N(C(=O)c2snc(C(N)=O)c2N)C(C(=O)NCC2CCCO2)c2ccc(C)o2)c1 (configuration not stated),inconclusive: -100%,–
CC(O)CNc1ccc([N+](=O)[O-])cc1S(=O)(=O)N1CCOCC1 (configuration not stated),inconclusive: -18.4%,–
Cc1cc(Cl)c2oc(C(=O)NCCN3CCOC3=O)c(C)c2c1,inconclusive: -17.2%,–
O=C(CCCSc1ccccc1)Nc1cccc(CO)c1,inconclusive: 19.1%,–
CCNC(=O)c1cccc(NC(=O)C2CC(=O)N(CCc3ccccc3)C2)c1 (configuration not stated),inconclusive: 4.36%,–
Cc1ccc(C)c(N(C(=O)CNC(=O)c2ccco2)C(C(=O)NC2CCCCC2)c2ccncc2)c1 (configuration not stated),–,"inconclusive: 18.4 µM [falling, partial curve, poor fit]"
O=C(Nc1ccc(S(=O)(=O)N2CCCC2)cc1)c1cnccn1,inconclusive: -2.5%,–
CCCC[C@]12Cc3cc(C#N)ccc3C(O1)c1c(c3ccccc3oc1=O)O2,–,"inconclusive: 0.237 µM [activator, full curve, poor fit]"
COc1ccc(Cl)cc1S(=O)(=O)N1CCCC(C(=O)NCc2ccncc2)C1 (configuration not stated),inconclusive: -30.1%,–
COC(=O)c1ccc(NC(=O)CNC(=O)c2sc3ccccc3c2Cl)cc1,inconclusive: -19.9%,–
COc1ccc(N(CCC(=O)Nc2ccccc2F)S(=O)(=O)c2ccc(C)cc2C)cc1,inconclusive: -16.6%,–
COc1ccc(N(CC(=O)NCCSCc2ccco2)S(=O)(=O)c2ccc(C)cc2)cc1,inconclusive: -15.4%,–
CCN(CC)C(=O)c1ccc2c(c1)N(Cc1ccccc1)C(=O)CS2=O (configuration not stated),inconclusive: 9.57%,–
Cc1ccc(C(=O)NNC(=O)c2ccncc2)cc1S(=O)(=O)N1CCOCC1,inconclusive: 9.6%,–

SMILES,"lipid storage change, negative = inhibition",Potency
Cc1ccc(NC(=O)CO/N=C(\N)c2nonc2N)cc1,–,"inconclusive: 1.16 µM [rising, full curve, poor fit]"
COc1cccc(-c2c(C(=O)N/N=C/c3cccnc3)nnn2-c2nonc2N)c1,–,"inconclusive: 7.31 µM [activator, full curve]"
O=[N+]([O-])c1ccc(C(O)C[n+]2ccccc2)cc1 (configuration not stated),–,"inconclusive: 6.51 µM [falling, partial curve, poor fit]"
O=C1COc2ccc(S(=O)(=O)Nc3ccc4c(c3)OCO4)cc2N1,inconclusive: 14.9%,–
Cc1noc(C(=O)NCc2ccc(F)cc2)c1Cl,inconclusive: -16%,–
FC(F)(F)c1nnc2ccc(N3CCN(c4ccccc4)CC3)nn12,–,"inconclusive: 0.13 µM [activator, full curve, poor fit]"
Cc1nnc(NC(=O)c2ccccc2-c2ccccc2C(=O)O)s1,inconclusive: 4.45%,–
O=C(NCCN1CCOCC1)c1cccn2c(=O)c3c4c(sc3nc12)CCCC4,inactive: 15.8%,–
CCOC(=O)CC(C(=O)OCC)P(=O)(c1ccccc1)c1ccccc1 (configuration not stated),–,"inconclusive: 18.4 µM [activator, partial curve]"
CCCCN(CCCC)CCNC(=O)c1ccc2nc(-c3ccccc3NC(C)=O)c(=O)[nH]c2c1,inconclusive: 8.6%,–
CC(C)(CNC(=O)c1ccc(S(=O)(=O)Nc2cccc(C(F)(F)F)c2)cc1)N1CCOCC1,inconclusive: 11.4%,–
COc1ccc(-c2cc3onc(-c4c(Cl)cccc4Cl)c3c(=O)n2C)cc1,–,"inconclusive: 23.1 µM [falling, single point]"
O=S(=O)(NC1CC1)c1ccc(S(=O)(=O)N2CCc3ccccc32)cc1,–,"inconclusive: 2.06 µM [activator, partial curve]"
COCCNCc1ccc(C(C)C)cc1,inconclusive: 9.71%,–
CCCCC(=O)Nc1cccc(NC(=O)c2ccc3c(c2)OCO3)c1,–,"inconclusive: 0.0052 µM [activator, full curve]"
O=C(O)CSc1c[nH]c2ccccc12,inconclusive: 18.5%,–
CN(CCCS(=O)(=O)[O-])c1ccc(/C=C/c2ccc3ccccc3[n+]2C)cc1,–,"inconclusive: 8.2 µM [activator, partial curve]"
N#CC1=C(N)C2=CCCC[C@H]2[C@H](c2cccc(F)c2)C1(C#N)C#N,inconclusive: -17.6%,–
CCn1c(CNC(=O)c2cccc(C)c2)nnc1SCC(=O)NC1CCCC1,inconclusive: 249%,–
O=C(c1cn(Cc2ccccc2)nc1-c1cccnc1)N1CCN(Cc2ccccc2)CC1,–,"inconclusive: 0.092 µM [falling, partial curve, poor fit]"
COc1ccc(N(CC(=O)NC2CCCCC2)C(=O)c2ccc(C)s2)cc1OC,inconclusive: -52.8%,–
CSCC[C@H](NC(=O)Nc1ccc(C)cc1)C(=O)O,inconclusive: -11.6%,–
O=C(O)CC/C(=N\Nc1ccc(Cl)cc1)c1cccs1,inconclusive: 52.5%,–
CCOP(=O)(c1ccc(N(C)C)cc1)C(O)c1ccc(OC)cc1 (configuration not stated),inconclusive: -26.5%,–
CCOC(=O)N1CCN(C(=O)CNS(=O)(=O)c2cccs2)CC1,inconclusive: -48.4%,–
